# The other results are listed elsewhere or left out.
# By UniProt entry, the sequences of proteins in these tests, tags left out. Where a name states a change or a piece, a line headed by the entry shows the natural chain unless it says otherwise.
# UniProt Q16836: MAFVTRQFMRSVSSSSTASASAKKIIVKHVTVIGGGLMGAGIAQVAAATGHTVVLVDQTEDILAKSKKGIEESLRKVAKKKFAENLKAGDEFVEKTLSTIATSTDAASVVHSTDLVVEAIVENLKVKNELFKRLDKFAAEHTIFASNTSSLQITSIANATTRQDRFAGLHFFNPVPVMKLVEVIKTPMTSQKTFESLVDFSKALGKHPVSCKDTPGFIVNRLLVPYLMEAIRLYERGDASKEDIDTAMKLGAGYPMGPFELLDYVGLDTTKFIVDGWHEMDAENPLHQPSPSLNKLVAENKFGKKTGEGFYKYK
# UniProt Q00403, whole entry, looked up: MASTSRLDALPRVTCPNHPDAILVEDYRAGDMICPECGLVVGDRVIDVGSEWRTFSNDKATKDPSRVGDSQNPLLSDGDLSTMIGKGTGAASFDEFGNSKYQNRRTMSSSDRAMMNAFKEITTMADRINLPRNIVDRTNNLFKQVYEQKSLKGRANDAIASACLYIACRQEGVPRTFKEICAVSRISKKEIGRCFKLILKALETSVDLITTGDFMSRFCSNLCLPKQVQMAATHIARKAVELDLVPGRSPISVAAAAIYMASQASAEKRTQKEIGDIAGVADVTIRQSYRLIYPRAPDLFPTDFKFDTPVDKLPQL
# UniProt Q9Y5Q9: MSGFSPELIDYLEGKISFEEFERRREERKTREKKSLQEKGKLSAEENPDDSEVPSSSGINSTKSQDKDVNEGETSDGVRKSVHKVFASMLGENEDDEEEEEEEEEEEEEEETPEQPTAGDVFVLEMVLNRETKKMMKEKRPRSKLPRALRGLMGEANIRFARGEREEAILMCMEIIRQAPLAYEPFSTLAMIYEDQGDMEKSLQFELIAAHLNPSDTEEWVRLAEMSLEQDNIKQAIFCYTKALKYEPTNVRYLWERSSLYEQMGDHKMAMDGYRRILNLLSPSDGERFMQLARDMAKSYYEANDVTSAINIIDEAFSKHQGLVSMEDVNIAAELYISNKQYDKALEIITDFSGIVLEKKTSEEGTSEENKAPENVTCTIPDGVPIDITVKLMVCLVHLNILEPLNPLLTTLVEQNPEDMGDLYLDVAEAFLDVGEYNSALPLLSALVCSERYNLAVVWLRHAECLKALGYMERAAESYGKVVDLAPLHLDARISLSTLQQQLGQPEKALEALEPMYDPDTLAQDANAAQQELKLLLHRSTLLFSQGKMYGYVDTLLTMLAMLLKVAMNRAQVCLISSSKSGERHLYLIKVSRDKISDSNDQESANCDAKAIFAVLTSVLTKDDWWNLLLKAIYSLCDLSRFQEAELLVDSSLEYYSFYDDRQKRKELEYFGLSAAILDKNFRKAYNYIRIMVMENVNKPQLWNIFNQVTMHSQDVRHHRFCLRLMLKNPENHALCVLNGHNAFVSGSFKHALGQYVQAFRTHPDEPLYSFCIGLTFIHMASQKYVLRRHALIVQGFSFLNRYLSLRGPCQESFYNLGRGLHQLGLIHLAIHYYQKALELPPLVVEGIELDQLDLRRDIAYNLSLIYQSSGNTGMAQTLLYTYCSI
# UniProt Q9NYZ3: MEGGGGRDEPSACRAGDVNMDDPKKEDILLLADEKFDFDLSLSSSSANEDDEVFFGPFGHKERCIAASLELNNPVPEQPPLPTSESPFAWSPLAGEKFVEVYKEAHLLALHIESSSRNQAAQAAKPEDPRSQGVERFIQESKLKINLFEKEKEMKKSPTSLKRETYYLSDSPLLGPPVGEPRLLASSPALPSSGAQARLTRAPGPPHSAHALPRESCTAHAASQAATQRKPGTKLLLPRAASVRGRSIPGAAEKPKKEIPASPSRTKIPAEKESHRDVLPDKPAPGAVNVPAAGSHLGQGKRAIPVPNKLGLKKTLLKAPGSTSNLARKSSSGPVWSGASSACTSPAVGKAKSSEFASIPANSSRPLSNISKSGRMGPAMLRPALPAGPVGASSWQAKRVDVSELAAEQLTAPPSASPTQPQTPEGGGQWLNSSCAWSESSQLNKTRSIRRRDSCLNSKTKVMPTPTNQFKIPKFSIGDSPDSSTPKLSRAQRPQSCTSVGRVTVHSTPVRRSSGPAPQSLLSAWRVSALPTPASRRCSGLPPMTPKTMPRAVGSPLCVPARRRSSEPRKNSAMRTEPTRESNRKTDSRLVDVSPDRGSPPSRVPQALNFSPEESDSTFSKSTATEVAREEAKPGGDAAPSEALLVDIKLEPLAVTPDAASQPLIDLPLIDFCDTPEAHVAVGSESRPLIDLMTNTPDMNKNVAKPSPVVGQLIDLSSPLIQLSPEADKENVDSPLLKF
# UniProt P46976: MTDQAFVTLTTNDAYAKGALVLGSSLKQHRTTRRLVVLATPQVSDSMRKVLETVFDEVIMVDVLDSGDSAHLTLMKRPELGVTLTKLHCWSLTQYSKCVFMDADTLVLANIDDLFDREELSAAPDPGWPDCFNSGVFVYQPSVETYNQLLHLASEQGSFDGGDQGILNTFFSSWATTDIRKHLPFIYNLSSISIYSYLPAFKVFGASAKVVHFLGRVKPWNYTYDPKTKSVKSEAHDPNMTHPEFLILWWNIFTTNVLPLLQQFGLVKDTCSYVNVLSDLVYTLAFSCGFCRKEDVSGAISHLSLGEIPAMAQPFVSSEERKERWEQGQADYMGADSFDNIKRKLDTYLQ
# UniProt Q9BX10: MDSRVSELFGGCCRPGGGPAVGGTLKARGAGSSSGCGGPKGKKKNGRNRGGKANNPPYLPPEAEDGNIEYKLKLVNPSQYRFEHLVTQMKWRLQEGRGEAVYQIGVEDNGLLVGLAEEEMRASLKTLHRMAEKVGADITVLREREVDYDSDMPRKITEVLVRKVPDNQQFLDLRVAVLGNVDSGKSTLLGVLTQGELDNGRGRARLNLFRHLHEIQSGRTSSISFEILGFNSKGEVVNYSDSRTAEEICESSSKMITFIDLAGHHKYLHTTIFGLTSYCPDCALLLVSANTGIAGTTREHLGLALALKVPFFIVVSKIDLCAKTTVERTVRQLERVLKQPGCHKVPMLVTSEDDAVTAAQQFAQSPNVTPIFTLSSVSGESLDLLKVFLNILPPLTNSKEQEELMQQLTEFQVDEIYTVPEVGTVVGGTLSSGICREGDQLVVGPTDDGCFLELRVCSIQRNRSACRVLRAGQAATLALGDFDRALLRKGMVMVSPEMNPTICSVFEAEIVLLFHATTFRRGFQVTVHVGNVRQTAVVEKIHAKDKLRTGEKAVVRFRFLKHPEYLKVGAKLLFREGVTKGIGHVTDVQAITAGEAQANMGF
# UniProt P00390: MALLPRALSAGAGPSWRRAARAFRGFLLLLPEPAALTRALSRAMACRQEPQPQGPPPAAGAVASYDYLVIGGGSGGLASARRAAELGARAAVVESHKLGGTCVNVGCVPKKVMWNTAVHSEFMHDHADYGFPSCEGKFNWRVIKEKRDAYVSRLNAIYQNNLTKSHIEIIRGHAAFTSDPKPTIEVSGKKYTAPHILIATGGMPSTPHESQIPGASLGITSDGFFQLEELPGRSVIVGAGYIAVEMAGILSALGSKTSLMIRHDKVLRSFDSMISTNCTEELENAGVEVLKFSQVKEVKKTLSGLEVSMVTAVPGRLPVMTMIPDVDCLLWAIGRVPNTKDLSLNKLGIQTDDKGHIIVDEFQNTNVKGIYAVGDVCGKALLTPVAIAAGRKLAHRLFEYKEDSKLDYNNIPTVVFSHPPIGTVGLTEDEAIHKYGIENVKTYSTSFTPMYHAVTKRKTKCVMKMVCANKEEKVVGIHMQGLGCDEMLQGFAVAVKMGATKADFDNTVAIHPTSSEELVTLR
# UniProt P09211: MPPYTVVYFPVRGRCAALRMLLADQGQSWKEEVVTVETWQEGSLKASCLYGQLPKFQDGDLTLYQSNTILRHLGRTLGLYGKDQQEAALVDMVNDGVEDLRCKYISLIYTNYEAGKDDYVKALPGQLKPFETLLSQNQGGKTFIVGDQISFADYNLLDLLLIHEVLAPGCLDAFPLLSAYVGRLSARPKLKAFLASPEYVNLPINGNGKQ
# UniProt O75367, whole entry, looked up: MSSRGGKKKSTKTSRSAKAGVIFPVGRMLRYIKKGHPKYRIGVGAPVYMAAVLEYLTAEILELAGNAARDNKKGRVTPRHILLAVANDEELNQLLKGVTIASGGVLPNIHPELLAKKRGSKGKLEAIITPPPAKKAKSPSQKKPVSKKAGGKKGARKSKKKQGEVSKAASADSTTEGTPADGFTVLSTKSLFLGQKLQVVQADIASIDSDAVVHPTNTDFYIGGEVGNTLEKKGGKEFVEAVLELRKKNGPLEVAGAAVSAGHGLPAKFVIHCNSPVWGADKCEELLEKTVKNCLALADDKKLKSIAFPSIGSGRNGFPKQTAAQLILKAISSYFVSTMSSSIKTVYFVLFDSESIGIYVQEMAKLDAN
# UniProt O14929: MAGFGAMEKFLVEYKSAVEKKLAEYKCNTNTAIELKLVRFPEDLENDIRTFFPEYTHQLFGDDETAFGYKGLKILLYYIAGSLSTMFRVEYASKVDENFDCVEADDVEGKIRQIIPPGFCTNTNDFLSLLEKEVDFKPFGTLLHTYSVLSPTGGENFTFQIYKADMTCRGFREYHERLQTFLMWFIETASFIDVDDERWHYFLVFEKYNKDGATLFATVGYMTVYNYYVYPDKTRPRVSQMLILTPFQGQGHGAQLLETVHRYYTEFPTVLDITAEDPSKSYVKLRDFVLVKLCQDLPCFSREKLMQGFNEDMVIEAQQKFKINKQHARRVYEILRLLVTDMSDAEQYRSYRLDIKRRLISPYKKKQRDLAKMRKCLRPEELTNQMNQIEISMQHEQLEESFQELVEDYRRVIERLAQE
# UniProt Q8WW33: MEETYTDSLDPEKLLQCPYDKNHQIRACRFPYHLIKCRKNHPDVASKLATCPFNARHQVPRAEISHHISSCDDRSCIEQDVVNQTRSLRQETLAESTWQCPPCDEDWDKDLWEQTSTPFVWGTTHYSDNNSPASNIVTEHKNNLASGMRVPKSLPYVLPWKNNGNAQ
# UniProt Q4V328: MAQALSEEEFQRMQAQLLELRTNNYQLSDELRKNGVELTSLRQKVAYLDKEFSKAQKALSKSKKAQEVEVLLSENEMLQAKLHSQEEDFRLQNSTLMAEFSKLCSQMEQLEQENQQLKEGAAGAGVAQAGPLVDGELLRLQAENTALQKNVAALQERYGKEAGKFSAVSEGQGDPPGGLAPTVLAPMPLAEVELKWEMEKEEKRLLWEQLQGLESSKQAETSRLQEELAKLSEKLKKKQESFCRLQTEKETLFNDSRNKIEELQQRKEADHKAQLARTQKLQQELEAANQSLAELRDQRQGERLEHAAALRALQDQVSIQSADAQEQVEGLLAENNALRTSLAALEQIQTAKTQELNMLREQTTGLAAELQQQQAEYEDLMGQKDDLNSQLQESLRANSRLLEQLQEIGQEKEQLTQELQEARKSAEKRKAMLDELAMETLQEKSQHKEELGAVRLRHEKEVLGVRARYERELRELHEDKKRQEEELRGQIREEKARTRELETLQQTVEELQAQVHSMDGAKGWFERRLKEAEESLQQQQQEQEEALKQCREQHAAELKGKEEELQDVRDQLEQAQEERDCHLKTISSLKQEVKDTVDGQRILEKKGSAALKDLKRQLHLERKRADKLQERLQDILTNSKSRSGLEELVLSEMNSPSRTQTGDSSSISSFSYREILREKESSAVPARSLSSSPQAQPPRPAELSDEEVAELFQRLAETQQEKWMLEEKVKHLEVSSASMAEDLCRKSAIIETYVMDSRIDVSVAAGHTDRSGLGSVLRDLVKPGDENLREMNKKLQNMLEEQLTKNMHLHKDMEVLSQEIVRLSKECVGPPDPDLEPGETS
# UniProt P57764: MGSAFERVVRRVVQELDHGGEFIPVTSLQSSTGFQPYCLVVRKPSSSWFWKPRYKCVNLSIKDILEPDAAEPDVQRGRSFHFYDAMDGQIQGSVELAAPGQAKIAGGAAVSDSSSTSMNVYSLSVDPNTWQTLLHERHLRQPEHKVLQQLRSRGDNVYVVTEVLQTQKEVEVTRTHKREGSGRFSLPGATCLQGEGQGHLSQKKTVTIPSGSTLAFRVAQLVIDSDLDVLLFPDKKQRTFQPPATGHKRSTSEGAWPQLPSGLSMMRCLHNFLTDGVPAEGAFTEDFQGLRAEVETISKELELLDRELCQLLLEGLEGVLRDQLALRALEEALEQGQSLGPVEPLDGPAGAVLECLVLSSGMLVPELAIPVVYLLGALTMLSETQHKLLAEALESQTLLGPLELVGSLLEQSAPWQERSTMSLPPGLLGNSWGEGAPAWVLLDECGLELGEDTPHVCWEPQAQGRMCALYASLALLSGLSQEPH
# UniProt Q99871: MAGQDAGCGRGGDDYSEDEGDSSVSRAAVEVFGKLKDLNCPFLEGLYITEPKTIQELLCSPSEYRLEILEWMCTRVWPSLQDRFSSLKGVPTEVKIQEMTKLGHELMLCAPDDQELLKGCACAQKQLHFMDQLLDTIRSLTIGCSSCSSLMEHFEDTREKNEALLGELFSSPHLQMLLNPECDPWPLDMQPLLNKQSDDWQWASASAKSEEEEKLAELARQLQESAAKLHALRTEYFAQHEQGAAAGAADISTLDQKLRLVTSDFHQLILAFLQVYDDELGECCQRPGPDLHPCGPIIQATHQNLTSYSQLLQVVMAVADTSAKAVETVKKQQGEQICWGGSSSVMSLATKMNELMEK
# Compound: Cc1cc(ccc1-c1ccccc1)C(=O)N1CCCN(CC1)C(=O)CCl [compound 10]
# Assay: probe-labelled cysteine peptide fold change vs DMSO (competition) (log2 fold change); higher = less target engagement (more negative = stronger competition)
# Conditions: 10 µM; THP-1; incubation time: 4 h
# 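Note: competitive profiling in live THP-1 cells: cysteine peptides tagged with an iodoacetamide desthiobiotin (IA-DTB) probe, intensity after compound treatment relative to DMSO-treated cells.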
row,Target,probe-labelled cysteine peptide fold change
1,HADH_Q16836_211_ALGKHPVSCK (UniProt Q16836),-0.467
2,GRN_P28799_164+165+171_VHCCPHGAFCDLVHTR (UniProt P28799),-0.233
3,HADH_Q16836_211_HPVSCK (UniProt Q16836),-0.0183
4,GTF2B_Q00403_34_AGDMICPECGLVVGDR (UniProt Q00403),0.179
5,GTF3C3_Q9Y5Q9_239_QAIFCYTK (UniProt Q9Y5Q9),0.168
6,GRN_P28799_543_QGWACCPYR (UniProt P28799),0.00927
7,GSE1_Q14687_1199_CLALPAMHWPR (UniProt Q14687),0.254
8,GSTM3_P21266_91_HNMCGETEEEK (UniProt P21266),0.109
9,GPX7_Q96SL4_86_DLGPHHFNVLAFPCNQFGQQEPDSNK (UniProt Q96SL4),-0.0107
10,HADHA_P40939_349_ALMGLYHGQVLCKK (UniProt P40939),-0.265
11,GSK3B_P49841_76_LCDSGELVAIKK (UniProt P49841),-0.065
12,GTF3C1_Q12789_1783_TFADCIQALLEQHQVLEVGGNTAR (UniProt Q12789),-0.0212
13,GPT2_Q8TD30_432_LTEDLFNQVPGIHCNPLQGAMYAFPR (UniProt Q8TD30),-0.102
14,GTSE1_Q9NYZ3_436_DSCLNSK (UniProt Q9NYZ3),-0.0541
15,GTF3C1_Q12789_1091_CAMLEYTTGSR (UniProt Q12789),-0.183
16,GTPBP3_Q969Y2_46_CGIAVIR (UniProt Q969Y2),-0.0828
17,GTF2H3_Q13889_255_AACFCHR (UniProt Q13889),0.0418
18,GYG1_P46976_89_LHCWSLTQYSK (UniProt P46976),0.0736
19,GTPBP2_Q9BX10_36_GAGSSSGCGGPK (UniProt Q9BX10),-0.243
20,GTSE1_Q9NYZ3_478_AQRPQSCTSVGR (UniProt Q9NYZ3),0.154

row,Target,probe-labelled cysteine peptide fold change
1,GSR_P00390_377_GIYAVGDVCGK (UniProt P00390),0.0739
2,GSS_P48637_409_IEPEPFENCLLRPGSPAR (UniProt P48637),-0.136
3,GTF3C1_Q12789_1977_ERDCESVCFIGRPWR (UniProt Q12789),-0.0113
4,GPX1_P07203_78_GLVVLGFPCNQFGHQENAK (UniProt P07203),0.15
5,HACE1_Q8IYU2_172_TELLHDLVQHVSDVDVEDAMGQTALHVACQNGHK (UniProt Q8IYU2),0.096
6,GSE1_Q14687_1151_QVLQTQCR (UniProt Q14687),0.0388
7,GSTP1_P09211_48_ASCLYGQLPK (UniProt P09211),0.0629
8,GYS1_P13807_575_SLDDSCSQLTSFLYSFCQQSR (UniProt P13807),0.357
9,H2AFY_O75367_297_NCLALADDK (UniProt O75367),0.0778
10,HAT1_O14929_168_ADMTCR (UniProt O14929),0.0387
11,GTSF1_Q8WW33_71_AEISHHISSCDDR (UniProt Q8WW33),0.0863
12,GPX1_P07203_202_RFQTIDIEPDIEALLSQGPSCA (UniProt P07203),-0.188
13,GTF3A_Q92664_191_AHEGYVCQK (UniProt Q92664),0.112
14,GRIPAP1_Q4V328-2_502_EAEGKEEELQDVRDQLEQAQEERDCHLK (UniProt Q4V328),-0.101
15,GSDMD_P57764_56_CVNLSIK (UniProt P57764),0.0791
16,GTF3C1_Q12789_853_AGVRPSSSGSAWEACSEAPSK (UniProt Q12789),-0.24
17,HAUS7_Q99871_50_DLNCPFLEGLYITEPK (UniProt Q99871),-0.022
18,HAGH_Q16775_219_VYCGHEYTINNLK (UniProt Q16775),-0.00388
19,GTF2B_Q00403_34+37_AGDMICPECGLVVGDR (UniProt Q00403),0.105

# Same assay, conditions: 50 µM; THP-1; incubation time: 4 h
row,Target,probe-labelled cysteine peptide fold change
1,HADH_Q16836_211_ALGKHPVSCK (UniProt Q16836),-0.98
2,GRN_P28799_164+165+171_VHCCPHGAFCDLVHTR (UniProt P28799),-0.702
3,HADH_Q16836_211_HPVSCK (UniProt Q16836),0.126
4,GTF2B_Q00403_34_AGDMICPECGLVVGDR (UniProt Q00403),0.198
5,GTF3C3_Q9Y5Q9_239_QAIFCYTK (UniProt Q9Y5Q9),0.00729
6,GRN_P28799_543_QGWACCPYR (UniProt P28799),0.0238
7,GSE1_Q14687_1199_CLALPAMHWPR (UniProt Q14687),0.135
8,GSTM3_P21266_91_HNMCGETEEEK (UniProt P21266),0.121
9,GPX7_Q96SL4_86_DLGPHHFNVLAFPCNQFGQQEPDSNK (UniProt Q96SL4),-0.1
10,HADHA_P40939_349_ALMGLYHGQVLCKK (UniProt P40939),-0.573
11,GSK3B_P49841_76_LCDSGELVAIKK (UniProt P49841),-0.272
12,GTF3C1_Q12789_1783_TFADCIQALLEQHQVLEVGGNTAR (UniProt Q12789),0.0192
13,GPT2_Q8TD30_432_LTEDLFNQVPGIHCNPLQGAMYAFPR (UniProt Q8TD30),-0.151
14,GTSE1_Q9NYZ3_436_DSCLNSK (UniProt Q9NYZ3),-0.12
15,GTF3C1_Q12789_1091_CAMLEYTTGSR (UniProt Q12789),-0.0281
16,GTPBP3_Q969Y2_46_CGIAVIR (UniProt Q969Y2),-0.0921
17,GTF2H3_Q13889_255_AACFCHR (UniProt Q13889),0.0292
18,GYG1_P46976_89_LHCWSLTQYSK (UniProt P46976),0.246
19,GTPBP2_Q9BX10_36_GAGSSSGCGGPK (UniProt Q9BX10),-0.567
20,GTSE1_Q9NYZ3_478_AQRPQSCTSVGR (UniProt Q9NYZ3),0.0725

row,Target,probe-labelled cysteine peptide fold change
1,GSR_P00390_377_GIYAVGDVCGK (UniProt P00390),0.0996
2,GSS_P48637_409_IEPEPFENCLLRPGSPAR (UniProt P48637),-0.000102
3,GTF3C1_Q12789_1977_ERDCESVCFIGRPWR (UniProt Q12789),-0.287
4,GPX1_P07203_78_GLVVLGFPCNQFGHQENAK (UniProt P07203),0.0456
5,HACE1_Q8IYU2_172_TELLHDLVQHVSDVDVEDAMGQTALHVACQNGHK (UniProt Q8IYU2),0.0207
6,GSE1_Q14687_1151_QVLQTQCR (UniProt Q14687),0.108
7,GSTP1_P09211_48_ASCLYGQLPK (UniProt P09211),0.0278
8,GYS1_P13807_575_SLDDSCSQLTSFLYSFCQQSR (UniProt P13807),-0.227
9,H2AFY_O75367_297_NCLALADDK (UniProt O75367),-0.00756
10,HAT1_O14929_168_ADMTCR (UniProt O14929),0.0342
11,GTSF1_Q8WW33_71_AEISHHISSCDDR (UniProt Q8WW33),-0.0663
12,GPX1_P07203_202_RFQTIDIEPDIEALLSQGPSCA (UniProt P07203),0.0483
13,GTF3A_Q92664_191_AHEGYVCQK (UniProt Q92664),-0.151
14,GRIPAP1_Q4V328-2_502_EAEGKEEELQDVRDQLEQAQEERDCHLK (UniProt Q4V328),-0.725
15,GSDMD_P57764_56_CVNLSIK (UniProt P57764),-0.362
16,GTF3C1_Q12789_853_AGVRPSSSGSAWEACSEAPSK (UniProt Q12789),-0.655
17,HAUS7_Q99871_50_DLNCPFLEGLYITEPK (UniProt Q99871),-0.0793
18,HAGH_Q16775_219_VYCGHEYTINNLK (UniProt Q16775),0.0301
19,GTF2B_Q00403_34+37_AGDMICPECGLVVGDR (UniProt Q00403),0.0895

# Reference: the supplement of paper PMC12067093, “Discovery and optimisation of a covalent ligand for TRIM25 and its application to targeted protein ubiquitination” (Chemical Science, 2025)
